# Measured values reported in PubChem BioAssay AID1487 (National Center for Advancing Translational Sciences (NCATS), 2009).
# The campaign covered roughly 200,000 compounds. About 25 (0.01%) were called active. This list was built around the results that the source calls inconclusive (neither active nor inactive); the mix of calls is not that of the screen. Calls follow the shape of the dose curve; as a rule, active = well fitted inhibition curve with a large enough effect in the signal ratio, with a control signal flat (not every such curve was filed as active); inconclusive = small, poorly fitted or top-dose-only effect, or effect the other way, or a change in a side signal; inactive = flat fitted curve, though single readings scatter; the % refers to the signal ratio. Potencies of inconclusive entries are doubtful fits and often do not repeat.
# Experiment: qHTS Assay for Modulators of Lamin A Splicing
# Details: HeLa LMNA splicing GFP/RFP minigene ratio, 48 h; ratio change, negative = inhibition: at 46.1 µM (top of the series) unless noted
# Summary of the method: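 S3 HeLa cells stably expressing lamin A-EGFP splicing minigene plus DsRed2, 600 cells/well, 48 h compound exposure at 37C. Laser-scanning cytometry; analysed as GFP (500-530 nm)/RFP (575-640 nm) total intensity ratio; 0.5% DMSO vehicle.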
# % is scaled to controls: 0 for no effect and ±100 for the full control effect; potency is read from the fitted curve at half-maximal effect.
SMILES,"ratio change, negative = inhibition",Potency
O=C(N/N=C/c1ccccc1O)c1cc(=O)[nH]c2ccccc12,inconclusive: -31.2%,
COc1ccccc1CNc1ncnc2c1nnn2C,inactive: 7.58% [at 46 µM],
COc1ccccc1OCC(=O)NC1CCCCCC1,inconclusive: -18.4%,
COC(=O)C1=C(C)NC(C)=C(C(=O)OC(C)C)[C@H]1c1cccc2nonc12,,inconclusive: 0.0004 µM [cytotoxic]
CCc1c(C)nc(N)n2c(SCC(=O)N3CCN(c4ccccc4OC)CC3)nnc12,inactive: -2.13%,
O=C(NNC(=S)NC1CCCCC1)c1ccc(Cl)s1,inconclusive: -34.8% [at 46 µM],
CC1=C(C(=O)OC(C)C)C2(O)C(=O)c3ccccc3C2(O)N1 (stereo not given),inactive: 6.89%,
O=C(Nc1ccccc1F)c1ccc(COc2ccc(Cl)cc2Cl)o1,inactive: -13.5%,
COc1ccc(N(C(=O)/C=C/C(=O)Nc2cc(C)on2)C(C(=O)NC2CCCC2)c2ccccc2C)cc1 (stereo not given),inconclusive: -50.8%,
CCn1c(=O)cc(OCC(=O)N2CCCC2)c2ccccc21,inactive: -10.8%,
CCCc1[nH]nc2c1C(c1ccc(Br)s1)C(C#N)=C(N)O2 (stereo not given),,"inconclusive: 35.5 µM [cytotoxic, single point]"
COC(=O)c1cc(COc2ccc3oc(C)c(C(=O)OC(C)C)c3c2)c(C)o1,inconclusive: -30.4%,
Cc1cc(N2CCN(c3ccccc3)CC2)n2nnnc2n1,inactive: -4.12%,
COc1ccc(-c2nc(SCC(=O)NCc3ccccc3Cl)n[nH]2)cc1,inactive: -28.7% [at 46 µM],
CC(C)SCc1cc(N2CCCC2)nc(-c2ccccc2)n1,inconclusive: 16.5% [at 46 µM],
CCCn1c(CN(C)Cc2ccccc2)nc2c1c(=O)n(C)c(=O)n2C,,"inconclusive: 12.6 µM [fluorescent, partial curve]"
Cc1ccc(CNC(=O)CN2C(=O)CC(c3ccc(C)c(C)c3)=Nc3ccccc32)cc1,inactive: 3.42% [at 46 µM],
Cc1cc(C)nc(Sc2ncnc3c2oc2ccccc23)n1,,"inconclusive: 5.62 µM [inhibitor, partial curve]"
CCCCOc1cccc(C(=O)NC(=S)Nc2ccc(Cl)c(C(=O)O)c2)c1,inconclusive: 17.2% [at 46 µM],
CC1(C)c2ccccc2N2CCC(=O)NC21/C=C/c1ccco1 (stereo not given),inactive: 10.1%,
Cn1cnc([N+](=O)[O-])c1Sc1ncnc2nc[nH]c12,inconclusive: 14.6%,
COc1ccc(C(=O)C[n+]2cc(-c3ccc(OC)cc3)n3c2CCCC3)cc1,,"inconclusive: 11.2 µM [inhibitor, partial curve, poor fit]"
Cc1ccc(S(=O)(=O)c2cc3ccccc3oc2=Nc2ccc3c(c2)OCO3)cc1,inconclusive: 33.6%,
COc1cc(S(=O)(=O)N(Cc2ccccc2)CC2CCCO2)ccc1-n1cnnn1 (stereo not given),inconclusive: 12.3% [at 46 µM],
CCC(=O)Nc1c(C)nn(-c2ccc(C)c(C)c2)c1C,inactive: -3.1%,
Cn1c(=O)c2c(SCC(=O)N3CCc4ccccc43)nc(-c3ccc(Cl)cc3)nc2n(C)c1=O,inconclusive: 3.38% [at 46 µM],
O=S(=O)(c1ccccc1)c1ccccc1/C=N\O,inconclusive: 7.97%,
COc1ccc(C(=O)c2ccccc2)c(O)c1O,inactive: -15.2%,

# Single entries from above:
# Potency with COC(=O)C1=C(C)NC(C)=C(C(=O)OC(C)C)[C@H]1c1cccc2nonc12 is entered as inconclusive: 0.0004 µM [cytotoxic]
# Potency with CCCc1[nH]nc2c1C(c1ccc(Br)s1)C(C#N)=C(N)O2 (stereo not given) is entered as inconclusive: 35.5 µM [cytotoxic, single point]

# Following part.

SMILES,"ratio change, negative = inhibition",Potency
Cc1ccc2c(c1)cc(CN(Cc1ccco1)C(=O)N1CCOCC1)c1nnnn12,inconclusive: -16.5% [at 46 µM],
Cc1ccc(C(=O)NCc2ccco2)cc1Br,inactive: -0.45%,
CC(C)OC(=O)CC1C(=O)NCCN1C(=S)NC(=O)CCc1ccccc1 (stereo not given),inconclusive: 30.7% [at 46 µM],
O=C(CNC(=O)OCc1ccccc1)NC1CCCCCCC1,inconclusive: -6.14%,
COc1ccccc1CNC(=O)c1nnn(CC(=O)Nc2c(C)cccc2C)c1N,inactive: 9.3% [at 46 µM],
CC1=NN(c2ccc(Cl)cc2)C(=O)C1,,"inconclusive: 28.2 µM [inhibitor, single point]"
COC(=O)C1CCN(C(=O)C(C)Oc2ccc(Cl)cc2Cl)CC1 (stereo not given),inactive: -1.5%,
CCCN(CCC)c1ccc(CC(=O)NC(C)Cc2ccccc2)cc1 (stereo not given),inactive: -12%,
COc1cccc(OC)c1C(=O)NC(=S)Nc1ccc(S(=O)(=O)Nc2nccs2)cc1,inconclusive: 8.71% [at 46 µM],
CCOC(=O)Cn1cnc2c(cnn2-c2ccc(Cl)cc2)c1=O,inconclusive: -11.6%,
O=C(COC(=O)c1ccccc1Nc1cccc(C(F)(F)F)c1)NCc1ccco1,inactive: -4.48%,
Cc1sc(NC(=O)CSc2nnc(C(C)C)n2C)c(C#N)c1C,inconclusive: -12.9%,
CCN(CC)CCNC(C(=O)OCCC(C)C)c1ccccc1 (stereo not given),inconclusive: 23.3%,
O=C(NC1CCCC1)C(c1ccncc1)N(Cc1ccccc1)C(=O)c1ccc(-c2ccccc2)[nH]1 (stereo not given),inconclusive: -23.6%,
Cc1cccc2nc(COc3ccc(-c4ccccc4)cc3)cn12,inconclusive: -46.4% [at 46 µM],
CCCCCCCCn1c(=O)c(C(=O)OCC)c(O)c2ccccc21,inconclusive: -37.1%,
CCN(C(=O)C1CCCN(c2ncnc3c2nc2n3CCCCC2)C1)c1cccc(Cl)c1 (stereo not given),inconclusive: -4.28% [at 46 µM],
COc1c2ccoc2nc2c(OC)c(OC[C@H](O)C(C)(C)O)ccc12,inconclusive: -20.2%,
COc1cccc(-n2c(Cn3nc(C(F)F)cc3C(F)F)n[nH]c2=S)c1,inactive: 5.7%,
COc1ccc(-c2cc(=O)n3[nH]cnc3n2)cc1,inconclusive: 11.6% [at 46 µM],
O=C(c1ccc(C(=O)N2CCCc3ccccc32)nc1)N1CCCc2ccccc21,inactive: 14.2%,
CCOC(=O)C1(CC2CCCCO2)CCN(Cc2ccccc2-c2ccco2)CC1 (stereo not given),inconclusive: -1.71% [at 46 µM],
CC(C)CCOC(=O)/C(=C/c1ccco1)NC(=O)/C=C/c1ccccc1,inactive: 3.58%,
COC(=O)c1ccc(Cn2nnc3ccccc3c2=O)o1,inconclusive: 3.62%,
Cc1ccc(-c2ccc(C(=O)Nc3cccc(F)c3)o2)c2ccccc12,,"inconclusive: 11.2 µM [fluorescent, partial curve, poor fit]"
CC(C)=CCN1CCN(Cc2nc(-c3ccccc3)cs2)CC1CCO (stereo not given),inconclusive: -3.44% [at 46 µM],
S=C(NCc1ccc2[nH]c3c(c2c1)CCCC3)Nc1ccccc1,,"inconclusive: 35.5 µM [falling, single point]"
